Values from PubChem BioAssay AID720710 (VTT Finland, 2013)

Aim: 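Genes whose loss lowers DNA synthesis when an oncogene drives replication stress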 (primary screen)
Cell system: human U-2 OS bone cancer cells, parental and a cyclin E (CCNE1) overexpressing line
Reagents: single siRNA against human genes, 1 µM siRNA in the printed spot mix
Time to read-out: 67 h
Challenge: half the arrays: hydroxyurea 2 mM for 16 h, then 3 h recovery; other arrays untreated
Detection: 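DNA synthesis measured as imaged EdU uptake per nucleus (DAPI) at 67 h, normalised to subgrid median and given as z-score versus non-targeting controls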
Direction: EdU z-score, cyclin E line, hydroxyurea: higher = more DNA synthesis than non-targeting controls
This is a random part of about 1,380 deposited reagents. 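One array per condition without replicates; hydroxyurea arrays received 2 mM for 16 h plus 3 h recovery.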 Not all columns of the deposit are shown.

After knock-down of RAD21 (RAD21 cohesin complex component) [SID164222586], the record shows EdU z-score, cyclin E line, hydroxyurea -1.17.
After knock-down of RAD21 (RAD21 cohesin complex component) [SID164222587], the screen gave EdU z-score, cyclin E line, hydroxyurea -0.243.
Depletion of LOC729659 [SID164222244] resulted in: EdU z-score, cyclin E line, hydroxyurea -0.144.
LOC729659 [SID164222245] scored EdU z-score, cyclin E line, hydroxyurea 0.928.
Depletion of SMARCD3 (SWI/SNF related BAF chromatin remodeling complex subunit D3) [SID164222786] came out at: EdU z-score, cyclin E line, hydroxyurea -2.35.
Against SMARCD3 (SWI/SNF related BAF chromatin remodeling complex subunit D3) [SID164222787] the deposit lists EdU z-score, cyclin E line, hydroxyurea -1.38.
KDM3A (lysine demethylase 3A) [SID164222186] showed EdU z-score, cyclin E line, hydroxyurea -0.702.
Against KDM3A (lysine demethylase 3A) [SID164222187], the entry reads EdU z-score, cyclin E line, hydroxyurea -0.352.
RFC1 (replication factor C subunit 1) [SID164222644] scored EdU z-score, cyclin E line, hydroxyurea 0.609.
For RFC1 (replication factor C subunit 1) [SID164222645] the deposit lists EdU z-score, cyclin E line, hydroxyurea 2.67.
With knock-down of APEX1 (apurinic/apyrimidinic endodeoxyribonuclease 1) [SID164221684], the screen gave EdU z-score, cyclin E line, hydroxyurea -2.14.
APEX1 (apurinic/apyrimidinic endodeoxyribonuclease 1) [SID164221685] scored EdU z-score, cyclin E line, hydroxyurea 0.881.
ZNF488 (zinc finger protein 488) [SID164223022] scored EdU z-score, cyclin E line, hydroxyurea -0.508.
ZNF488 (zinc finger protein 488) [SID164223023] gave EdU z-score, cyclin E line, hydroxyurea 0.372.
With knock-down of P3H4 (prolyl 3-hydroxylase family member 4 (inactive)) [SID164222716], the record shows EdU z-score, cyclin E line, hydroxyurea -2.08.
Silencing of P3H4 (prolyl 3-hydroxylase family member 4 (inactive)) [SID164222717] came out at: EdU z-score, cyclin E line, hydroxyurea 2.13.
For EREG (epiregulin) [SID164221942], the entry reads EdU z-score, cyclin E line, hydroxyurea -0.799.
After knock-down of EREG (epiregulin) [SID164221943], the screen gave EdU z-score, cyclin E line, hydroxyurea 0.773.
For TERT (telomerase reverse transcriptase) [SID164222874], the entry reads EdU z-score, cyclin E line, hydroxyurea -0.493.
Knock-down of TERT (telomerase reverse transcriptase) [SID164222875] resulted in: EdU z-score, cyclin E line, hydroxyurea 0.268.

2 consecutive reagents already listed:
RFC1 (replication factor C subunit 1) [SID164222645] → EdU z-score, cyclin E line, hydroxyurea: 2.67
APEX1 (apurinic/apyrimidinic endodeoxyribonuclease 1) [SID164221684] → EdU z-score, cyclin E line, hydroxyurea: -2.14

The list goes on:
LOC652826 [SID164222232] showed EdU z-score, cyclin E line, hydroxyurea -0.124.
Depletion of LOC652826 [SID164222233] gave: EdU z-score, cyclin E line, hydroxyurea 2.1.
Against UCP1 (uncoupling protein 1) [SID164222962], the values are EdU z-score, cyclin E line, hydroxyurea -0.875.
Against UCP1 (uncoupling protein 1) [SID164222963], the values are EdU z-score, cyclin E line, hydroxyurea 0.00657.
Against UBE2B (ubiquitin conjugating enzyme E2 B) [SID164222950], the values are EdU z-score, cyclin E line, hydroxyurea -0.216.
After knock-down of UBE2B (ubiquitin conjugating enzyme E2 B) [SID164222951], the screen gave EdU z-score, cyclin E line, hydroxyurea 0.28.
MYO6 (myosin VI) [SID164222354] showed EdU z-score, cyclin E line, hydroxyurea -1.7.
MYO6 (myosin VI) [SID164222355] gave EdU z-score, cyclin E line, hydroxyurea 0.146.
Against TNP1 (transition protein 1) [SID164222902], the values are EdU z-score, cyclin E line, hydroxyurea -1.99.
Against TNP1 (transition protein 1) [SID164222903] the deposit lists EdU z-score, cyclin E line, hydroxyurea -0.278.
UBE2V2 (ubiquitin conjugating enzyme E2 V2) [SID164222956] gave EdU z-score, cyclin E line, hydroxyurea 0.135.
After knock-down of UBE2V2 (ubiquitin conjugating enzyme E2 V2) [SID164222957], the record shows EdU z-score, cyclin E line, hydroxyurea 1.17.
